Experimental data published in paper PMC11215065.
Results are given in words; binding and its absence hold for the method and conditions named. Some entries that bind do so weakly or less than the wild type.

The chains behind the UniProt entries cited, without tags or fusion partners. Residues count along the entry.
UniProt P26718, residues 73-216: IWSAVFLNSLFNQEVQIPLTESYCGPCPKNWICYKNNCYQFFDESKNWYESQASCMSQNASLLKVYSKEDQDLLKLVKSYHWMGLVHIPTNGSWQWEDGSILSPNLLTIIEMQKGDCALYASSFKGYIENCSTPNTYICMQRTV

Assays:
[1] = target: T1, ULBP1 on transduced HEK293 cells (UniProt Q9BZM6); test: flow cytometry on cells; ULBP1 (or ULBP3) HEK293 cells pretreated with sU20 at various concentrations for 5 minutes on ice, then stained with 5 nM NKG2D-Fc; only the binder purified
T1 sequence: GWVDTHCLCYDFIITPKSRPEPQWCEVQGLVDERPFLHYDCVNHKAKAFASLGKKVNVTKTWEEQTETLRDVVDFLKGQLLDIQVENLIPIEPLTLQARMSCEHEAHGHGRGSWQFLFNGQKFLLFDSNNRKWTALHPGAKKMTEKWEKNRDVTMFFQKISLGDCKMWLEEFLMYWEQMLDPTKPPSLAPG

[2] = target: T2, ULBP3 on transduced HEK293 cells (UniProt Q9BZM4); test: as above
T2 sequence: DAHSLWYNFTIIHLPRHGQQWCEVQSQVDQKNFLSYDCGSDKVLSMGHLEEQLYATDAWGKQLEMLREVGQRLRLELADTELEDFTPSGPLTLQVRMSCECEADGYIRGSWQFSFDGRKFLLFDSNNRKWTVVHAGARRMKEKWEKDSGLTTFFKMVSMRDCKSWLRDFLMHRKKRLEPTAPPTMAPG

[3] = target: T1, ULBP1 on transduced HEK293 cells; test: flow cytometry on cells; as a5 but in HEK293T cells (fully intact, complex glycans); Supplementary Figure S3; only the binder purified
[4] = target: T1, ULBP1 on transduced HEK293 cells; test: flow cytometry on cells; 5 nM NKG2D-Fc with AlexaFluor647 anti-human IgG F(ab')2 on ULBP1 or ULBP1/U20 HEK293S GnTI cells, on ice 30 minutes; only the binder purified

Measured: binding

NKG2D-Fc (from UniProt P26718 73-216) (Fc fusion)
binds: all assays above
